Values are the deposited “Percent Effect”, in %.
The controls that fix the scale are not given in the record; negative values are as filed.
This is an unselected part of the compounds tested.
Two or more numbers in one place are separate tests of the same structure; such repeats can differ widely.

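Whole-cell growth test on Mycobacterium tuberculosis, read after 3 days in glucose-containing 7H9 medium; the read-out is not stated. Tested at 50 µM. Higher reads as more growth inhibition (inferred: compounds with an IC50 in retests scored well above the rest). About 69,000 compounds were tested under these conditions; 1.1% (about 760) showed 50% or more at least once.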

Compound: CN1CC(=O)N(c2cccc(F)c2)CC12CCN(Cc1nccs1)C2.O=C(O)C(F)(F)F.O=C(O)C(F)(F)F (configuration not stated)
Percent Effect: 5.969 and 3.651

Compound: O=S(=O)(c1ccccc1)N1CCC2(CCCN2CC2CCCC2)C1 (configuration not stated)
Percent Effect: 19.46

Compound: COc1ccc(OC)c(C2CCN(C(=O)C3CCOCC3)C2)c1 (configuration not stated)
Percent Effect: -32.86

Compound: CC(C)c1nnc(NCCS(C)(=O)=O)s1
Percent Effect: -8.846

Compound: CC(O)c1cccc(N2CCC3(CCC(=O)N(CC(N)=O)C3)CC2)n1 (configuration not stated)
Percent Effect: 6.264

Compound: CCOC(=O)C1CCN(CCCc2nnnn2-c2ccccc2)CC1
Percent Effect: 10.75 and 6.198

Compound: CN(Cc1cccnc1)C1CC2(CCN(C(=O)c3cscn3)CC2)C1
Percent Effect: -38.6

Compound: CCc1cccc(C)c1NC(=O)c1ccccc1N(C)S(C)(=O)=O
Percent Effect: -16.47

Compound: CCc1noc(C)c1C(=O)N1CCCC1Cn1cccn1 (configuration not stated)
Percent Effect: -21.94

Compound: CCn1ccnc1CN(C)Cc1nc(Cc2ccccc2F)no1
Percent Effect: 8.976 and 6.152

Compound: COCC(c1cccc(C(F)(F)F)c1)N(C)C(=O)c1ccccn1 (configuration not stated)
Percent Effect: 4.841

Compound: CN(CC1Cc2ccccc2CN1C)c1nc(N)nc2c1CCNCC2 (configuration not stated)
Percent Effect: 30.81

Compound: CCOCCCNC(=O)NC(C)c1ccc(-n2cncn2)cc1 (configuration not stated)
Percent Effect: 26.26

Compound: CCOCC1CN(C(=O)Cc2ccccn2)Cc2cnn(C)c21.O=C(O)C(F)(F)F.O=C(O)C(F)(F)F (configuration not stated)
Percent Effect: -26.84

Compound: Cc1nn(C)c(Cl)c1C1CCCN1C(=O)c1cccc(C#N)c1 (configuration not stated)
Percent Effect: -0.9829 and 9.22

Compound: Cc1nn(C)c(C)c1C1COCCN1C(=O)c1ccc(Cl)o1 (configuration not stated)
Percent Effect: -39.05

Compound: Cn1cnnc1C1CCCN(C(=O)NCCCn2cccn2)C1 (configuration not stated)
Percent Effect: -9.013

Compound: CC(CN1CCC2(CC1)N=C(N(C)C)NC2=O)c1ccccc1 (configuration not stated)
Percent Effect: 4.685

Compound: O=S(=O)(NCCN1CCOCC1)c1cncc(Cl)c1
Percent Effect: 6

Compound: O=C(c1coc(-c2ccccc2)n1)N1CCS(=O)(=O)CC1
Percent Effect: -22.22 and 4.622

Compound: Brc1csc(-c2noc(C3COCCO3)n2)c1 (configuration not stated)
Percent Effect: 43.56

Compound: CCNc1ccnc(-c2ccnc3c2ccn3C)n1
Percent Effect: -6.136

Compound: O=C(NC[C@H]1OC[C@@H](NC2CCC(F)(F)CC2)[C@@H]1O)c1ccccc1
Percent Effect: -7.107 and -26.93

Compound: Cc1cnc(N2CCCC3(CCOCC3)C2)nc1
Percent Effect: 9.539

Compound: COc1ccccc1CNCc1nn(-c2ccccc2)c2c1CCC2
Percent Effect: 53.06

Compound: O=C(COCc1ccccc1Cl)N1CCN(c2ncccn2)CC1
Percent Effect: -21.07

Compound: CC(C)Cn1cncc1Cn1cccc(C(F)(F)F)c1=O
Percent Effect: 18.42

Compound: [H][C@]12CC[C@]([H])(CN(C(=O)Cc3ccncc3)C1)N(Cc1ccccc1)C2=O
Percent Effect: 0.3677 and -12.42

Compound: Cc1cccc(CN2CCC(Cc3ccccc3F)CC2)n1
Percent Effect: 29.15

Compound: Cc1ccc(CC(=O)N2CCN(C(C)c3ccccc3F)CC2)cn1 (configuration not stated)
Percent Effect: -33.37

Compound: Cc1ncc(CN2CCCC(c3cc(C(F)(F)F)[nH]n3)C2)s1 (configuration not stated)
Percent Effect: 23.65

Compound: COc1ccsc1C(=O)N1CCCN(Cc2cscn2)CC1
Percent Effect: -22

Compound: Cn1cc(C(C)(O)CNc2ccc(C(F)(F)F)cn2)cn1 (configuration not stated)
Percent Effect: -19.09

Compound: CCCN1CCCN(c2ncccc2C(=O)N2CCCCC2)CC1
Percent Effect: 21.14

Compound: NC(=O)CNC(=O)c1cc(Cn2cnc3ccccc32)[nH]n1
Percent Effect: 2.963 and 9.242

Compound: Cc1ccc(C(=O)Nc2nc(C)no2)cc1
Percent Effect: 23.52

Compound: O=C(CCc1nccs1)N1CCN(c2cccnn2)CC1
Percent Effect: -33.67

Compound: Cc1cnc(CN(C)Cc2cc3c(cc2OC(F)F)OCO3)o1
Percent Effect: 21.58

Compound: COCc1ccc(CN[C@H]2C[C@@H](Cc3cc(CCO)on3)C2(C)C)o1
Percent Effect: -1.788 and -0.2418

Compound: O=C(c1cc(C2CC2)[nH]n1)N1CCN(Cc2ccc(Cl)cc2)CC1
Percent Effect: -0.5851 and 3.492

Compound: NC(=O)CN(Cc1ccc(Br)cc1)C(=O)c1cccnc1
Percent Effect: -8.347

Compound: CCCNC(=O)COc1cc(C)c2c(C)nn(-c3ccc(C)cc3)c2n1
Percent Effect: 2.398

Compound: CC(C)OCCC(=O)Nc1c(-c2ccc(F)cc2)ncn1C
Percent Effect: -5.291 and -2.458

Compound: CCn1c(C)nnc1SCCNc1cc(N2CCOCC2)ncn1
Percent Effect: -29.06 and -3.709

Compound: Cc1n[nH]c(C)c1NC(=O)NCc1ccccn1
Percent Effect: 4.192

Compound: NC(=O)N1CC(OCc2cccc3ccccc23)C1
Percent Effect: 0.7369 and 1.276

Compound: O=C(Nc1nncs1)N1CCCN(C2CCCCC2)CC1
Percent Effect: -6.105 and -26.04

Compound: COCCOC[C@]1(CNCc2ccc(OC)cc2)C[C@@H](O)[C@@H](O)C1.Cl
Percent Effect: 7.576 and -0.3683

Compound: Cc1nc(CCNC(=O)CC2CCN(C(C)C)CC2)sc1Cl
Percent Effect: -30.81

Compound: CC(Cn1cccn1)NCc1cnc(N2CCCC2)nc1 (configuration not stated)
Percent Effect: 2.67

Compound: O=C(c1cccc2ncccc12)N1CCCC(n2ccnc2)C1 (configuration not stated)
Percent Effect: 24.65

Compound: Cn1cnnc1C1CCCN(C(=O)c2cc(Cl)c3c(c2)OCO3)C1 (configuration not stated)
Percent Effect: -9.901

Compound: Cc1nnc(C(C)NCC2(c3ccc(Cl)cc3)CCOCC2)o1 (configuration not stated)
Percent Effect: -14.18 and 4.713

Compound: OCCCN1CCCC1c1nc(Cc2ccc(F)cc2)no1 (configuration not stated)
Percent Effect: -3.193 and -18.5

Compound: COCc1n[nH]c2c1CN(C(=O)c1ccncc1)C2.O=C(O)C(F)(F)F
Percent Effect: 36.56 and 0.3924

Some entries from above, unchanged:

Compound	Percent Effect
CCCN1CCCN(c2ncccc2C(=O)N2CCCCC2)CC1	21.14
O=S(=O)(c1ccccc1)N1CCC2(CCCN2CC2CCCC2)C1 (configuration not stated)	19.46
Cc1ncc(CN2CCCC(c3cc(C(F)(F)F)[nH]n3)C2)s1 (configuration not stated)	23.65
Cn1cnnc1C1CCCN(C(=O)c2cc(Cl)c3c(c2)OCO3)C1 (configuration not stated)	-9.901
CCc1noc(C)c1C(=O)N1CCCC1Cn1cccn1 (configuration not stated)	-21.94
CC(CN1CCC2(CC1)N=C(N(C)C)NC2=O)c1ccccc1 (configuration not stated)	4.685

From ChEMBL document CHEMBL3988442, “University of Dundee, Small-Polar-MMV Screening Library” (2021).